Source: PMC5241739, “Structure of the Toll/Interleukin-1 Receptor (TIR) Domain of the B-cell Adaptor That Links Phosphoinositide Metabolism with the Negative Regulation of the Toll-like Receptor (TLR) Signalosome*^([image sbox.jpg])” (The Journal of Biological Chemistry, 2016)

Biological target: T1, BCAP-TDA, the first 434 amino acids of human BCAP (human) (UniProt Q6ZUJ8)
T1 sequence: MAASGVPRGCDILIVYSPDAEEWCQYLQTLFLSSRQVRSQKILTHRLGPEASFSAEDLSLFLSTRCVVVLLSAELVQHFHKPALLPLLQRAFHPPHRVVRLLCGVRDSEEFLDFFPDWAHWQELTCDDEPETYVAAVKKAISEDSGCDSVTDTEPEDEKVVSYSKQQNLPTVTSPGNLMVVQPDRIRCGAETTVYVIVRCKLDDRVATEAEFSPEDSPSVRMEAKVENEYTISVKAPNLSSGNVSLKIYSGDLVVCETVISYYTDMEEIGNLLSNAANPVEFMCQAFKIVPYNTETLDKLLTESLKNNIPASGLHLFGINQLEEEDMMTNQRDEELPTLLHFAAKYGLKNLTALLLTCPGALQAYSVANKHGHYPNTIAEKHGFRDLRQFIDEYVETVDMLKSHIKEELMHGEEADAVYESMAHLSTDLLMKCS
Experiment: two-hybrid; Matchmaker system; bait GAL4-DBD in AH109 mated with prey GAL4-AD in Y187; growth on SD/−Leu/−Trp/−His/−Ade + Xα-Gal + 5 mM 3-AT

binding: binds
Substance: regulatory p85 subunit of PI3K (yeast two-hybrid prey)

No constants are given. Whether binding was seen depends on the method and setting. Binding can be weak; no strength is given.
